{"source": "PubChem BioAssay AID504784 (Drosophila RNAi Screening Center, 2011)", "aim": "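Fly genes whose silencing alters how much lipid cells keep in droplets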 (primary screen)", "system": "Drosophila Kc167 embryonic cells", "reagent": "long dsRNA against Drosophila genes, about 250 ng dsRNA per well", "time to read-out": "4 days", "challenge": "cells fed 400 µM oleic acid bound to BSA", "read-out": "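Cells imaged and segmented; ratio of lipid droplet area to nuclear area, log-transformed, then normalised as a B-score over the screen; higher means more stored lipid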", "reading the numbers": "droplet/nuclear area B-score: higher = more stored lipid (overstorage)", "note": "In all, the deposit lists about 17,000 reagents; below is a random part of those with a known target gene and a result. 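Each column is one replicate's B-score; the combined score over replicates was not deposited, so single values may mislead.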 Further read-outs or replicates are left out here."}
{"Gene": "Cyp313a5 (Cytochrome P450 313a5)", "dsRNA": "DRSC16628", "droplet/nuclear area B-score, replicate 1": -0.497}
{"Gene": "ND-MLRQ (NADH dehydrogenase (ubiquinone) MLRQ subunit)", "dsRNA": "DRSC11913", "droplet/nuclear area B-score, replicate 1": 3.32}
{"Gene": "hth (homothorax)", "dsRNA": "DRSC16967", "droplet/nuclear area B-score, replicate 1": -0.535}
{"Gene": "Tsen34 (tRNA splicing endonuclease subunit 34)", "dsRNA": "DRSC22932", "droplet/nuclear area B-score, replicate 1": 0.274}
{"Gene": "Cyt-c1L (Cytochrome c1-like)", "dsRNA": "DRSC14860", "droplet/nuclear area B-score, replicate 1": -0.0495}
{"Gene": "Cyt-c1L (Cytochrome c1-like)", "dsRNA": "DRSC22096", "droplet/nuclear area B-score, replicate 1": 0.283}
{"Gene": "Lkr (Leucokinin receptor)", "dsRNA": "DRSC09754", "droplet/nuclear area B-score, replicate 1": 0.899}
{"Gene": "RapGAP1 (Rap GTPase activating protein 1)", "dsRNA": "DRSC02293", "droplet/nuclear area B-score, replicate 1": -1.2}
{"Gene": "RapGAP1 (Rap GTPase activating protein 1)", "dsRNA": "DRSC02294", "droplet/nuclear area B-score, replicate 1": -0.288}
{"Gene": "RapGAP1 (Rap GTPase activating protein 1)", "dsRNA": "DRSC03406", "droplet/nuclear area B-score, replicate 1": 0.0133}
{"Gene": "CG31715", "dsRNA": "DRSC21607", "droplet/nuclear area B-score, replicate 1": 1.01}
{"Gene": "CG10195", "dsRNA": "DRSC02026", "droplet/nuclear area B-score, replicate 1": 0.713}
{"Gene": "CG9876", "dsRNA": "DRSC04586", "droplet/nuclear area B-score, replicate 1": -0.33}
{"Gene": "dor (deep orange)", "dsRNA": "DRSC18765", "droplet/nuclear area B-score, replicate 1": 1.32}
{"Gene": "ng3 (new glue 3)", "dsRNA": "DRSC18804", "droplet/nuclear area B-score, replicate 1": -0.0985}
{"Gene": "Octbeta2R (Octopamine beta2 receptor)", "dsRNA": "DRSC15350", "droplet/nuclear area B-score, replicate 1": 0.196}
{"Gene": "Octbeta2R (Octopamine beta2 receptor)", "dsRNA": "DRSC16165", "droplet/nuclear area B-score, replicate 1": 0.461}
{"Gene": "CG30197", "dsRNA": "DRSC22394", "droplet/nuclear area B-score, replicate 1": 1.43}
{"Gene": "CG5062", "dsRNA": "DRSC18385", "droplet/nuclear area B-score, replicate 1": -2.38}
{"Gene": "APC7 (Anaphase Promoting Complex subunit 7)", "dsRNA": "DRSC17937", "droplet/nuclear area B-score, replicate 1": 3.34}
{"Gene": "Dip-C (Dipeptidase C)", "dsRNA": "DRSC15855", "droplet/nuclear area B-score, replicate 1": -0.167}
{"Gene": "TwdlX (TweedleX)", "dsRNA": "DRSC19151", "droplet/nuclear area B-score, replicate 1": 0.079}
{"Gene": "Jon74E (Jonah 74E)", "dsRNA": "DRSC10617", "droplet/nuclear area B-score, replicate 1": -0.501}
{"Gene": "mtSSB (mitochondrial single stranded DNA-binding protein)", "dsRNA": "DRSC17005", "droplet/nuclear area B-score, replicate 1": -0.337}
{"Gene": "BicC (Bicaudal C)", "dsRNA": "DRSC02005", "droplet/nuclear area B-score, replicate 1": -1.12}
{"Gene": "CG13738", "dsRNA": "DRSC10065", "droplet/nuclear area B-score, replicate 1": -0.847}
{"Gene": "Eaf (ELL-associated factor)", "dsRNA": "DRSC05050", "droplet/nuclear area B-score, replicate 1": -0.724}
{"Gene": "Eaf (ELL-associated factor)", "dsRNA": "DRSC06052", "droplet/nuclear area B-score, replicate 1": -1.77}
{"Gene": "Eaf (ELL-associated factor)", "dsRNA": "DRSC22028", "droplet/nuclear area B-score, replicate 1": -1.28}
{"Gene": "Gbeta76C (G protein beta subunit 76C)", "dsRNA": "DRSC11174", "droplet/nuclear area B-score, replicate 1": 2.3}
{"Gene": "agt (O-6-alkylguanine-DNA alkyltransferase)", "dsRNA": "DRSC12611", "droplet/nuclear area B-score, replicate 1": 1.6}
{"Gene": "veli", "dsRNA": "DRSC16276", "droplet/nuclear area B-score, replicate 1": -0.408}
{"Gene": "Prosbeta2 (Proteasome beta2 subunit)", "dsRNA": "DRSC11257", "droplet/nuclear area B-score, replicate 1": -3.45}
{"Gene": "ScsbetaA (Succinyl-coenzyme A synthetase beta subunit, ADP-forming)", "dsRNA": "DRSC14446", "droplet/nuclear area B-score, replicate 1": -0.1}
{"Gene": "CG5126", "dsRNA": "DRSC00680", "droplet/nuclear area B-score, replicate 1": 2.46}
{"Gene": "Adgf-C (Adenosine deaminase-related growth factor C)", "dsRNA": "DRSC16473", "droplet/nuclear area B-score, replicate 1": -1.05}
{"Gene": "CG10839", "dsRNA": "DRSC01965", "droplet/nuclear area B-score, replicate 1": 0.127}
{"Gene": "CG14731", "dsRNA": "DRSC14952", "droplet/nuclear area B-score, replicate 1": -1.12}
{"Gene": "toc (toucan)", "dsRNA": "DRSC00169", "droplet/nuclear area B-score, replicate 1": -1.51}
{"Gene": "toc (toucan)", "dsRNA": "DRSC00171", "droplet/nuclear area B-score, replicate 1": -0.576}
{"Gene": "toc (toucan)", "dsRNA": "DRSC00842", "droplet/nuclear area B-score, replicate 1": 0.0435}

Reprinted from the listing for reference:
{"Gene": "RapGAP1 (Rap GTPase activating protein 1)", "dsRNA": "DRSC02294", "droplet/nuclear area B-score, replicate 1": -0.288}
{"Gene": "RapGAP1 (Rap GTPase activating protein 1)", "dsRNA": "DRSC03406", "droplet/nuclear area B-score, replicate 1": 0.0133}
{"Gene": "CG31715", "dsRNA": "DRSC21607", "droplet/nuclear area B-score, replicate 1": 1.01}
